{"source": "PubChem BioAssay AID743121 (NCATS, 2013)", "screen": "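Genes whose silencing strengthens cell killing by camptothecin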 (primary screen)", "system": "MDA-MB-231 cells, a human breast cancer line", "reagents": "single siRNA against human genes, 20 nM siRNA (0.8 pmol per well)", "time to read-out": "120 h (drug added 48 h after transfection, read 72 h later)", "conditions": "camptothecin 20 nM (about EC30) for 72 h; vehicle 0.1% DMSO in parallel plates", "measurement": "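Cell viability by ATP luminescence (CellTiter-Glo) as % of non-targeting siRNA wells, and the log2 ratio of viability without drug over viability with camptothecin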", "scale": "log2 vehicle/camptothecin viability: higher = stronger sensitisation to camptothecin", "hit rule": "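Active genes have an RSA gene-level p-value below 0.001, computed from the ratios of their separate siRNAs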", "note": "This is an unselected part of about 26,000 deposited reagents. 167 of them (0.63%) count as active. 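Calls are per gene from RSA p-values that are not deposited; an individual active-marked siRNA can sensitise only weakly.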 A number with no mark means an inactive call. The numbers tell different reagents against one gene apart. Further read-outs or replicates are left out here. No sequences are given here."}
{"gene": "CAPN7 (calpain 7)", "reagent no.": 1, "log2 vehicle/camptothecin viability": 0.0412}
{"gene": "CAPN7 (calpain 7)", "reagent no.": 2, "log2 vehicle/camptothecin viability": -0.455}
{"gene": "CAPN7 (calpain 7)", "reagent no.": 3, "log2 vehicle/camptothecin viability": -0.231}
{"gene": "CAPN7 (calpain 7)", "reagent no.": 4, "log2 vehicle/camptothecin viability": -0.0514}
{"gene": "SLC7A5", "reagent no.": 1, "log2 vehicle/camptothecin viability": 0.197}
{"gene": "SLC7A5", "reagent no.": 2, "log2 vehicle/camptothecin viability": -0.279}
{"gene": "SLC7A5", "reagent no.": 3, "log2 vehicle/camptothecin viability": -0.435}
{"gene": "SLC7A5", "reagent no.": 4, "log2 vehicle/camptothecin viability": -0.324}
{"gene": "SLC7A5", "reagent no.": 5, "log2 vehicle/camptothecin viability": -0.202}
{"gene": "PPIL2 (peptidylprolyl isomerase like 2)", "reagent no.": 1, "log2 vehicle/camptothecin viability": 0.781}
{"gene": "PPIL2 (peptidylprolyl isomerase like 2)", "reagent no.": 2, "log2 vehicle/camptothecin viability": -0.0411}
{"gene": "PPIL2 (peptidylprolyl isomerase like 2)", "reagent no.": 3, "log2 vehicle/camptothecin viability": 0.615}
{"gene": "PPIL2 (peptidylprolyl isomerase like 2)", "reagent no.": 4, "log2 vehicle/camptothecin viability": -0.267}
{"gene": "GLI2 (GLI family zinc finger 2)", "reagent no.": 1, "log2 vehicle/camptothecin viability": -0.796}
{"gene": "GLI2 (GLI family zinc finger 2)", "reagent no.": 2, "log2 vehicle/camptothecin viability": -0.199}
{"gene": "GLI2 (GLI family zinc finger 2)", "reagent no.": 3, "log2 vehicle/camptothecin viability": 0.0539}
{"gene": "GLI2 (GLI family zinc finger 2)", "reagent no.": 4, "log2 vehicle/camptothecin viability": -0.0409}
{"gene": "SPSB4 (splA/ryanodine receptor domain and SOCS box containing 4)", "reagent no.": 1, "log2 vehicle/camptothecin viability": 0.154}
{"gene": "SPSB4 (splA/ryanodine receptor domain and SOCS box containing 4)", "reagent no.": 2, "log2 vehicle/camptothecin viability": -0.736}
{"gene": "SPSB4 (splA/ryanodine receptor domain and SOCS box containing 4)", "reagent no.": 3, "log2 vehicle/camptothecin viability": -0.426}
{"gene": "SPSB4 (splA/ryanodine receptor domain and SOCS box containing 4)", "reagent no.": 4, "log2 vehicle/camptothecin viability": -0.172}
{"gene": "METAP1D (methionyl aminopeptidase type 1D, mitochondrial)", "reagent no.": 1, "log2 vehicle/camptothecin viability": 0.177}
{"gene": "METAP1D (methionyl aminopeptidase type 1D, mitochondrial)", "reagent no.": 2, "log2 vehicle/camptothecin viability": -0.224}
{"gene": "METAP1D (methionyl aminopeptidase type 1D, mitochondrial)", "reagent no.": 3, "log2 vehicle/camptothecin viability": -0.223}
{"gene": "METAP1D (methionyl aminopeptidase type 1D, mitochondrial)", "reagent no.": 4, "log2 vehicle/camptothecin viability": -0.162}

Looked up above:
SPSB4 (splA/ryanodine receptor domain and SOCS box containing 4) #3, log2 vehicle/camptothecin viability → -0.426
Entry for METAP1D (methionyl aminopeptidase type 1D, mitochondrial) #4 under “log2 vehicle/camptothecin viability”: -0.162
